Cyclisation yield and step yield data for 1 substance are collected here from patent US8357654B2 (Centre National de la Recherche Scientifique, priority 2004, dated 2013).

Non-standard residues stand in square brackets, D forms with d. *: point of attachment. Biotin = O=C1N[C@H]2[C@H](CS[C@H]2CCCCC(=O)*)N1; Boc = CC(C)(C)OC(=O)*

The data set in a line: general procedure: peptide synthesis; 2-chlorotrityl chloride resin (1.3 or 1.6 mmol/g; Senn chemicals); BOP/DIEA (solution couplings); EDC.HCl/HOBt/DIEA (cyclisation).

The substance “H-[dA]K(Boc)[dK](Biotin)K(Boc)[dA]K(Boc)-OH (SEQ ID NO: 14)” showed a cyclisation yield (cyclisation step) of 83%. Moreover, the step yield (late stage modification step) was found to be 95%.
